{"source": "the supplement of paper PMC12889115", "tested_on": "Salmonella enterica serovar Typhimurium SL1344", "test": "bacterial growth OD600 after 18 h with compound and polymyxin B; higher = more bacterial growth (less inhibition)", "settings": "50 µM, Mueller-Hinton broth", "note": "This is one part of the list. Values are raw readings; no control value is given beside them.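 In the initial screen, polymyxin B was used at a concentration that permeabilizes Salmonella's outer membrane but not its inner membrane. Maximum growth was set by DMSO wells with or without polymyxin B. Since plates varied, data were ranked per plate, and compounds giving the lowest OD600 advanced as hits.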", "data": [{"smiles": "CC1(CCC(=O)N2CCC(N3CCCC(C(=O)NC4CC4)C3)CC2)CC1", "note": "(stereo not given)", "values": [{"measurement": "bacterial growth OD600", "setting": "polymyxin B 0.75 µg/mL", "value": 0.824}]}, {"smiles": "CC(C)OCCCNC(=O)c1ccc(OC2CCN(S(C)(=O)=O)CC2)c(Cl)c1", "values": [{"measurement": "bacterial growth OD600", "setting": "polymyxin B 1 µg/mL", "value": 0.836}]}, {"smiles": "COc1ccc(NC2CCCN(C(C)=O)C2)cc1", "note": "(stereo not given)", "values": [{"measurement": "bacterial growth OD600", "setting": "polymyxin B 1 µg/mL", "value": 0.927}]}, {"smiles": "CO[C@H]1[C@H](NC(=O)c2cccs2)c2ccccc2C12CCN(CC#Cc1ccccc1)CC2", "values": [{"measurement": "bacterial growth OD600", "setting": "polymyxin B 0.75 µg/mL", "value": 0.004}]}, {"smiles": "CCN1CC(C(=O)NCc2cccnc2Oc2c(C)cccc2C)CCC1=O", "note": "(stereo not given)", "values": [{"measurement": "bacterial growth OD600", "setting": "polymyxin B 0.75 µg/mL", "value": 0.86}]}, {"smiles": "O=C(Nc1ccc(Oc2ccccc2F)cc1)C1CCN(Cc2ccco2)CC1", "values": [{"measurement": "bacterial growth OD600", "setting": "polymyxin B 1 µg/mL", "value": 0.81}]}, {"smiles": "CCn1nc(C)cc1C(=O)N1CCOc2ccc(CN3CCN(c4ccccc4)CC3)cc2C1", "values": [{"measurement": "bacterial growth OD600", "setting": "polymyxin B 0.75 µg/mL", "value": 0.862}]}, {"smiles": "CC(=O)c1cccc(OCc2cc(C(=O)N(C)Cc3c(C)n[nH]c3C)n[nH]2)c1", "values": [{"measurement": "bacterial growth OD600", "setting": "polymyxin B 1 µg/mL", "value": 1.03}]}, {"smiles": "CC(C)(O)C#Cc1ccc(CNC2COc3ccccc3C2)cc1", "note": "(stereo not given)", "values": [{"measurement": "bacterial growth OD600", "setting": "polymyxin B 0.75 µg/mL", "value": 0.51}]}, {"smiles": "CN(CCc1ccccn1)[C@@H]1CCN(Cc2ccc3c(c2)CC(C)(C)O3)C[C@H]1O", "values": [{"measurement": "bacterial growth OD600", "setting": "polymyxin B 0.75 µg/mL", "value": 0.866}]}, {"smiles": "CCOC(=O)C1(C/C=C/c2ccccc2)CCCN(Cc2ccncc2)C1", "note": "(stereo not given)", "values": [{"measurement": "bacterial growth OD600", "setting": "polymyxin B 0.75 µg/mL", "value": 0.005}]}, {"smiles": "OCC1(Cc2ccc(Cl)cc2)CCN(CCCc2ccccc2)CC1", "values": [{"measurement": "bacterial growth OD600", "setting": "polymyxin B 0.75 µg/mL", "value": 0.587}]}, {"smiles": "CC(C)Cn1cc(C(=O)NC(C)c2ccc(Cl)cc2)c(=O)c(C(=O)N2CCCCCC2)c1", "note": "(stereo not given)", "values": [{"measurement": "bacterial growth OD600", "setting": "polymyxin B 0.75 µg/mL", "value": 0.734}]}, {"smiles": "COCc1ccc(CN2CCOc3ccc(C(O)Cc4ccccc4)cc3C2)o1", "note": "(stereo not given)", "values": [{"measurement": "bacterial growth OD600", "setting": "polymyxin B 0.75 µg/mL", "value": 0.794}]}, {"smiles": "CC(C)c1csc(CN2CCC(CO)(CCCc3ccccc3)CC2)n1", "values": [{"measurement": "bacterial growth OD600", "setting": "polymyxin B 1 µg/mL", "value": 0.581}]}, {"smiles": "Cc1cc(C)n(CCNc2nncc(-c3ccccc3F)n2)n1", "values": [{"measurement": "bacterial growth OD600", "setting": "polymyxin B 1 µg/mL", "value": 0.824}]}, {"smiles": "COc1ccc(CN2CCN(C3CCCC3)CC2CCO)cc1C", "note": "(stereo not given)", "values": [{"measurement": "bacterial growth OD600", "setting": "polymyxin B 1 µg/mL", "value": 0.922}]}, {"smiles": "O=C(Nc1ccnn1C1CCN(Cc2c[nH]c3ccccc23)CC1)C1CCCC1", "values": [{"measurement": "bacterial growth OD600", "setting": "polymyxin B 0.75 µg/mL", "value": 1.02}]}, {"smiles": "COc1ccc(C(CC(=O)NCc2nc(C)cs2)c2ccccc2)cc1", "note": "(stereo not given)", "values": [{"measurement": "bacterial growth OD600", "setting": "polymyxin B 1 µg/mL", "value": 0.824}]}, {"smiles": "O=C(Nc1cccc(N2CCC(NCCC(c3ccc(F)cc3)c3ccco3)CC2)c1)c1ccncc1", "note": "(stereo not given)", "values": [{"measurement": "bacterial growth OD600", "setting": "polymyxin B 0.75 µg/mL", "value": 0.672}]}]}
